Among the data in publication PMC5962103, “SHOC1 is a ERCC4-(HhH)2-like protein, integral to the formation of crossover recombination intermediates during mammalian meiosis” are binding values, retold here.

Protein sequences, listed by entry. Tags and fused reporters are not part of them. Residues count along the entry.
UniProt Q5VXU9, residues 570-1111: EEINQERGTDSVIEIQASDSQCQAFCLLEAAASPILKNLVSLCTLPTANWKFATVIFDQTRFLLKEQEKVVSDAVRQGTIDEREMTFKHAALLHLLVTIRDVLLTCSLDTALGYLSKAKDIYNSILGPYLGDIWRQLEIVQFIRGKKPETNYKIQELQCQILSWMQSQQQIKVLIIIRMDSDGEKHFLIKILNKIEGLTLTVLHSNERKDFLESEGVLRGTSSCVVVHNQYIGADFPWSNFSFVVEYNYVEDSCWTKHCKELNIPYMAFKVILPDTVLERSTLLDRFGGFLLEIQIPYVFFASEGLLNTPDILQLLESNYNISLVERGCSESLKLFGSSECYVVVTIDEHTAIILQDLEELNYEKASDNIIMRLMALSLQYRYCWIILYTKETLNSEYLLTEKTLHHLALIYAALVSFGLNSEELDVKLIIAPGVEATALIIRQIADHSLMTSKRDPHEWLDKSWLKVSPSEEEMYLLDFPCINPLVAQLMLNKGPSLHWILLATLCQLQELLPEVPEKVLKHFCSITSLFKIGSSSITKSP

Results are given in words; binding and its absence hold for the method and conditions named.

Assay [1] has as its target human SHOC1^570-1111 (human) (UniProt Q5VXU9). The assay is described as follows: cross-linking; 8 μM SHOC1 incubated with suberic acid bis(N-hydroxysuccinimide ester) (DSS) for 10 min at room temperature; 4-12% gradient SDS-PAGE, Coomassie stain; both purified.
For assay [2] the target is unchanged. The assay is described as follows: SEC; Superdex 200 gel filtration, calibrated with molecular weight markers; buffer Tris-HCl 7.4, NaCl 250 mM, glycerol 10%; both purified. A general note: SEC sorts molecules by how far they enter the pores of the column.

For “human SHOC1^570-1111 (from UniProt Q5VXU9 570-1111) (domain or fragment)”, the binding entry is “no binding (tested: 8 μM)” in assay [1] and “no binding” in assay [2].
